Measurements: article PMC13415529
Results are given in words; binding and its absence hold for the method and conditions named. In cells and extracts the contact can be indirect. A result given as binding can be weak or reduced; the word gives no strength.

Chains of the proteins cited; added tags and fusions are not shown. Lines headed by an entry give the natural chain unless they say otherwise; changes in a name come on top.
UniProt Q9H9Q4: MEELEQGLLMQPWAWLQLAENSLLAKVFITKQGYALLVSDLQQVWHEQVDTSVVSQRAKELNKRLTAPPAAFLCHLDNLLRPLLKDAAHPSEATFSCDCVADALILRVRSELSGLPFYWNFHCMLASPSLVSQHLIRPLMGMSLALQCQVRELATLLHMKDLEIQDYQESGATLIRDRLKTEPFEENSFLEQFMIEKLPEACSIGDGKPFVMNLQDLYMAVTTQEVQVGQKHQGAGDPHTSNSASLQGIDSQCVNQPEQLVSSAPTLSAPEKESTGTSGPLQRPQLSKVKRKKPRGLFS

Biological target: GST-UFM1 (human (by the printed UniProt accession)) (UniProt P61960)
Assay: pull-down; 3–5 µg GST-UFM1 on glutathione magnetic beads, overnight at 4 °C with extract of transfected HEK293T cells; washes NETN and PBS; immunoblot; only the target purified

binding: binds
Substance: XLF mutated in residues 199–207 (from UniProt Q9H9Q4)
